# The whole screen tested about 360,000 compounds, of which about 7,500 (2.1%) were called active. Inconclusive means that the source gave no clear call. Such entries were picked first, then a sample of the others. Calls come from the whole dose curve; as a rule, active = well fitted inhibition curve with a large enough effect; inconclusive = small, poorly fitted or top-dose-only effect, or effect the other way; inactive = flat fitted curve, though single readings scatter. Potencies of inconclusive entries are doubtful fits and often do not repeat.
# Assay: Nrf2 qHTS screen for inhibitors; note: nearly all actives have a fitted effect of over 60% in size
# Settings: A549 ARE-Fluc reporter, luciferase luminescence, 18-24 h; series mostly up to 46 µM
# How it was run: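 Concentration-response testing used A549 ARE_Fluc cells at 5000 cells/well. Following an 18-24 h compound incubation, viability was read by fluorescence (Ex 405/Em 525) and luciferase output by luminescence.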
# Potency is the fitted concentration of half-maximal effect.
row,SMILES,Potency
1,CCOC(=O)c1sc(N/N=C/c2cc(Br)c(O)c(OC)c2)nc1C,"inconclusive: 29.1 µM [falling, single point]"
2,COc1cccc(CNC(=O)c2cc3ccc4cccnc4c3[nH]2)c1,"inconclusive: 6.51 µM [activator, single point]"
3,COc1ccc(Cl)cc1NC(=O)c1ccc2c(SCC(=O)O)c3c(nc2c1)CCCC3,"inconclusive: 29.1 µM [activator, single point]"
4,Cc1ccc(C(=O)Nc2cccc(NC(=O)c3ccc(C)c([N+](=O)[O-])c3)n2)cc1[N+](=O)[O-],"inconclusive: 7.31 µM [falling, partial curve]"
5,COc1ccc(-c2cnc3c(-c4ccc(F)cc4)cnn3c2N)cc1,"inconclusive: 1.84 µM [activator, full curve]"
6,COc1ccc(OC)c(NC(=O)CN2CCC(NC(=O)c3ccccc3C)CC2)c1,inactive
7,O=S(=O)(Nc1ccccc1-c1ccccc1)c1ccccc1,"inconclusive: 9.2 µM [falling, partial curve, poor fit]"
8,O=C(c1ccco1)N1CCCC(c2nc(-c3ccc(S(=O)(=O)NCc4ccccc4)cc3)no2)C1 (configuration not stated),active: 10.3 µM
9,CCC(=O)CCC(=O)c1ccc2ccccc2c1,"inconclusive: 20.6 µM [activator, partial curve, poor fit]"
10,CN(Cc1nc(CCc2ccccc2)no1)Cc1cccs1,"inconclusive: 18.4 µM [activator, single point]"
11,CCCOc1ccc(CCc2n[nH]c(=S)n2Cc2ccccc2)cc1,"inconclusive: 29.1 µM [falling, single point]"
12,Cc1ccc(Cl)cc1NC(=O)CSc1nnc(C)n1-c1ccccc1,"inconclusive: 7.31 µM [falling, partial curve, poor fit]"
13,CCOc1ccc(/C=C2\CCC(C3CCCC3)C2=O)cc1 (configuration not stated),"inconclusive: 2.31 µM [activator, full curve]"
14,C[C@H](CO)N1C[C@H](C)[C@@H](CN(C)S(=O)(=O)c2ccc(F)cc2)Oc2c(NC(=O)Nc3ccccc3)cccc2C1=O,"inconclusive: 18.4 µM [falling, partial curve, poor fit]"
15,Cc1nn(-c2ccccc2)c2sc(C(=O)Nc3cccc(Br)c3)cc12,"inconclusive: 20.6 µM [falling, single point]"
16,O=C(Nc1cccc(C(=O)N2CCCCC2)c1)C1CCCCC1,inactive
17,CSc1ccc(C(=O)C2CCCN(C(=O)c3cccnc3SC)C2)cc1 (configuration not stated),"inconclusive: 29.1 µM [falling, single point]"

# 2 entries picked at random from the list so far:
row,SMILES,Potency
10,CN(Cc1nc(CCc2ccccc2)no1)Cc1cccs1,"inconclusive: 18.4 µM [activator, single point]"
11,CCCOc1ccc(CCc2n[nH]c(=S)n2Cc2ccccc2)cc1,"inconclusive: 29.1 µM [falling, single point]"

# Source: PubChem BioAssay AID504444 (National Center for Advancing Translational Sciences (NCATS), 2011)
